The results in this text go back to article PMC6899681.

Protein sequences, listed by entry. Tags and fused reporters are not part of them. Lines headed by an entry give the natural chain unless they say otherwise; changes in a name come on top.
UniProt P03952: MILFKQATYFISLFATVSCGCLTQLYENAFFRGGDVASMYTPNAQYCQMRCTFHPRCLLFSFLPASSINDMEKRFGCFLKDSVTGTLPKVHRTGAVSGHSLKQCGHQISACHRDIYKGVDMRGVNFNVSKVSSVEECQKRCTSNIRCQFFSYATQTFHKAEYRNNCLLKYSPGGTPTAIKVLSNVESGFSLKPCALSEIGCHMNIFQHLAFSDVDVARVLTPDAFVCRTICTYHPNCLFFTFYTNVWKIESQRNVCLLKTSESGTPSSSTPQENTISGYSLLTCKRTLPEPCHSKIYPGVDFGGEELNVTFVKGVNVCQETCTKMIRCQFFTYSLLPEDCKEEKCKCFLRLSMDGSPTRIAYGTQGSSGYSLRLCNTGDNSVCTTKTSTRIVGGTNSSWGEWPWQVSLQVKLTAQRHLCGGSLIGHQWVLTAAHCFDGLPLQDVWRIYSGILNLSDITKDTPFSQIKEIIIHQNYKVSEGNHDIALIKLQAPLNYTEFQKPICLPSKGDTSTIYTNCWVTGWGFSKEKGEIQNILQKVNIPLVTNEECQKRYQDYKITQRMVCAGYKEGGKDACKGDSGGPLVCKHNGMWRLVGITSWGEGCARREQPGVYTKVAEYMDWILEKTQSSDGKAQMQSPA

This assay addresses Recombinant full-length plasma kallikrein, optimized variant with the active site mutation S559A, activated by β-FXIIa (human) (UniProt P03952). The experiment in a line: crystal structure; PKa with benzamidine, 1.3 Å, space group P2(1)2(1)2, crystals from the Morpheus screen; both purified.

No constants are given. Whether binding was seen depends on the method and setting.

“Recombinant full-length plasma kallikrein, optimized variant with the active site mutation S559A, activated by β-FXIIa (from UniProt P03952 20-390; P03952 391-638) (enzyme)”: the binding entry is recorded as “no binding”.
